A word on the AC50: it is the concentration at which the activity in the assay is half-maximal.

Results on 57 compounds are retold here after PubChem BioAssay AID1487 (National Center for Advancing Translational Sciences (NCATS), 2009).

The list shows a part of the results. The main result of the screen is listed elsewhere. These columns were measured beside it and carry no call. The list favours compounds with an active or inconclusive main result. The note in brackets gives the kind of curve behind each potency; many fits are weak.

This test can be described thus: qHTS Assay for Modulators of Lamin A Splicing. To be noted: HeLa LMNA splicing GFP/RFP minigene ratio, 48 h. The gist of the method:
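S3 HeLa stable clones carrying a lamin A-EGFP splicing minigene plus DsRed2 were seeded at 600 cells/well in Opti-MEM with 2% FBS, pin-dosed and incubated 48 h at 37°C. Acumen cytometry (488 nm) gave the GFP/RFP total-intensity ratio.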
For orientation: qHTS replaces the single test concentration by a dilution series.

Where [1] appears, read: measured here: GFP splicing reporter channel.
Setting [2] is: measured here: RFP viability control channel.

On to `CC(C)c1onc(C(=O)N2CCN(Cc3ccccc3)CC2)c1[N+](=O)[O-]`, for which the AC50 under setting [1] was 0.00501 µM [falling, full curve, poor fit]. As for `Nc1nc2c(s1)CC(c1ccccc1)CC2` (stereo not given), the AC50 is, setting by setting: under setting [1], 25.1 µM [rising, single point]; under setting [2], 31.6 µM [rising, single point]. As for `CCOc1ccc(NC(=O)c2sc3nc4n(c(=O)c3c2C)CCC4)cc1`, the AC50 under setting [2] was 7.08 µM [rising, partial curve]. Same read-out and setting: under `O=C(Nc1ccccc1F)C1CCCN(S(=O)(=O)c2ccccc2)C1` (stereo not given) stands 0.0158 µM [rising, full curve, poor fit]; under `COc1ccc(CN2CCC(C(=O)N3CCCC(C)C3)CC2)cc1OC` (stereo not given), 0.0282 µM [rising, full curve, poor fit]. For `CC(C1CC1)N(Cc1ccccc1)C(=S)Nc1cccc(C(F)(F)F)c1` (stereo not given), the AC50 was 35.5 µM [rising, single point] under setting [1] and 31.6 µM [rising, single point] under setting [2]. For the compound `O=S(=O)(Nc1ccc2cn[nH]c2c1)c1ccc(Cl)s1`, the half-maximal activity concentration (AC50) under setting [1] was 1.41 µM [falling, full curve, poor fit].

Regarding `Cc1cc(=O)[nH]c(SCC(=O)NC(C)C2CC3CCC2C3)c1C#N` (stereo not given), under setting [1], the AC50 was 14.1 µM [falling, single point]. For the compound `COc1ccc(CCn2c(C)cc3c(c2=O)C(c2ccc4c(c2)OCO4)C(C#N)=C(N)O3)cc1OC` (stereo not given), the concentration at half-maximal activity (AC50) under setting [2] is 12.6 µM [rising, single point]. As for `COc1ccccc1CNC(=O)C(=O)NCC(c1cccs1)S(=O)(=O)c1ccccc1` (stereo not given), the AC50 under setting [1] is 3.55 µM [rising, partial curve, poor fit]. For `COC(=O)C1=C(C(=O)OC)[C@@H]2N(C)c3ccc(OC)cc3[C@@]23C[C@@H](C(=O)OC)N(C(=O)COCc2ccccc2)C3=N1`, the concentration at half-maximal activity (AC50) under setting [2] is 0.001 µM [falling, full curve, poor fit].

As to `COc1ccc(NS(=O)(=O)c2ccc(Cl)c(N)c2)cc1Br`, the AC50 under setting [2] was 10 µM [rising, partial curve, poor fit]. For `CCCSc1nsc(N)n1`, the half-maximal activity concentration (AC50) is 2.82 µM [falling, single point] under setting [1] and 5.62 µM [falling, single point] under setting [2]. Take `O=[N+]([O-])c1ccc(COc2cccc(CNc3ccc(F)cc3)c2)cc1`: the half-maximal activity concentration (AC50) under setting [2] was 35.5 µM [rising, single point].

As to `O=C(Cc1ccc(-n2cccc2)cc1)NCc1ccccc1Cl`, the AC50 under setting [2] is 35.5 µM [rising, single point]. Turning to `Cc1cccc(C(=O)Nc2nnc(S(=O)(=O)N(C)Cc3ccccc3)s2)c1`, the concentration at half-maximal activity (AC50) under setting [1] was 12.6 µM [falling, partial curve]. Same read-out and setting: the same measure for `COc1ccc(CCNC(=O)CN(c2cc([N+](=O)[O-])ccc2OC)S(C)(=O)=O)cc1`: 0.00316 µM [falling, full curve, poor fit]. In the case of `CCOc1ccc(CNC(=O)c2ccc(Sc3ccc(C)cc3)c(NC(C)=O)c2)cc1`, the half-maximal activity concentration (AC50) was 14.1 µM [rising, partial curve] under setting [1] and 20 µM [rising, single point] under setting [2].

With `COc1cc(C(NC(C)=O)NC(C)=O)ccc1OCc1ccccc1`, the AC50 under setting [1] was 0.355 µM [falling, full curve, poor fit]. For `COc1ccc(-n2cnc3cc(NCc4cccs4)ccc32)cc1`, the AC50 under setting [2] is 22.4 µM [rising, single point]. Same read-out and setting: under `CCOc1ccc(OCC)c(NC(=O)c2cc(S(=O)(=O)N3CCc4ccccc43)cn2C)c1` stands 3.55 µM [rising, partial curve]. As for `C=CCOc1c(Br)cc(/C=N/n2c(CC)n[nH]c2=S)cc1Br`, the concentration at half-maximal activity (AC50) by setting is: under setting [1], 35.5 µM [rising, single point]; under setting [2], 0.0141 µM [rising, full curve, poor fit].

For the compound `C1CCc2nnnn2CC1`, the AC50 under setting [1] is 0.501 µM [rising, full curve, poor fit]. Regarding `CCN(CC)S(=O)(=O)c1cc([N+](=O)[O-])ccc1NNC(=O)Nc1ccc(F)cc1`, under setting [2], the half-maximal activity concentration (AC50) was 11.2 µM [rising, single point].

In the case of `Cc1cc(C)cc(OCC(=O)NNC(=O)C2CCCO2)c1` (stereo not given), the AC50 under setting [2] is 3.98 µM [falling, partial curve]. With `COc1ccccc1/C=C/C(=O)c1c2c(c(C)[nH]c1=O)CCCC2`, the concentration at half-maximal activity (AC50) under setting [1] is 4.47 µM [falling, partial curve] and the concentration at half-maximal activity (AC50) under setting [2] was 22.4 µM [falling, partial curve].

`CN(C)c1ncnc2c1ncn2C1OC(CO)C(O)C1O` (stereo not given): the half-maximal activity concentration (AC50) was 1.78 µM [falling, partial curve] under setting [1] and 10 µM [falling, partial curve] under setting [2].

For the compound `NS(=O)(=O)c1ccc(NC(=O)C2(c3ccccc3)CCCC2)cc1`, the AC50 under setting [1] was 0.0251 µM [falling, full curve]. For the compound `O=C(c1ccc(Cn2cc(Cl)cn2)o1)N1CCN(Cc2ccc3c(c2)OCO3)CC1`, the AC50 is 15.8 µM [rising, partial curve] under setting [1] and 17.8 µM [rising, partial curve, poor fit] under setting [2].

Consider `COC(=O)c1c(NC(=O)COC(=O)c2ccc(C)s2)sc2c1CCCCC2`, for which, under setting [1], the AC50 is 6.31 µM [falling, partial curve, poor fit]. On to `CCN1C(=O)C(CC(=O)Nc2ccc(F)cc2)N(Cc2ccc3c(c2)OCO3)C1=S` (stereo not given), for which the AC50 is 1 µM [rising, full curve, poor fit] under setting [1] and 14.1 µM [rising, partial curve] under setting [2]. In the case of `Cc1nn(C)cc1CNC(=O)COc1ccc(Cl)cc1Cl`, the AC50 under setting [2] was 15.8 µM [rising, partial curve]. Same read-out and setting: under `COc1cc(C(=O)O)nc(OC)n1` stands 3.98 µM [falling, single point]; under `Cc1ccc(-n2c(SCc3ccccc3F)nc3[nH]ncc3c2=O)cc1Cl`, 0.0112 µM [rising, full curve, poor fit]. Take `O=C1Nc2ccccc2Oc2cc([N+](=O)[O-])cc(Oc3ccccc3)c21`: the AC50 is, setting by setting: under setting [1], 6.31 µM [rising, full curve, poor fit]; under setting [2], 12.6 µM [rising, partial curve]. For `Cc1ccc2nc(NC(=O)CSc3[nH]c(=O)ncc3C)sc2c1`, the AC50 under setting [1] was 15.8 µM [falling, partial curve, poor fit].

`O=Nc1ccc2oc(=O)ccc2c1`: the AC50 is 35.5 µM [falling, single point] under setting [1] and 22.4 µM [falling, partial curve] under setting [2]. With `CCOC(=O)N1CCC(NC(=O)C2CCN(S(=O)(=O)c3c(C)noc3C)CC2)CC1`, the AC50 under setting [1] was 2.82 µM [falling, full curve, poor fit] and the AC50 under setting [2] was 3.16 µM [falling, full curve]. For `CCCCNC(=O)c1cccc(NC(=O)c2nsc3ccccc23)c1`, under setting [1], the AC50 is 0.0224 µM [rising, full curve, poor fit]. `C/C(=N\NC(=O)c1cc(C)[nH]n1)C(C)(C)C`: the AC50 under setting [1] is 14.1 µM [rising, partial curve, poor fit] and the AC50 under setting [2] is 11.2 µM [rising, partial curve, poor fit]. For the compound `O=C(N/N=C/c1cn(-c2ccccc2)nc1-c1cc2ccccc2o1)c1cccnc1`, the AC50 under setting [2] is 0.282 µM [rising, full curve, poor fit]. As for `CCOc1ccc(S(=O)(=O)Nc2ccccc2SC)cc1`, under setting [2], the concentration at half-maximal activity (AC50) was 22.4 µM [rising, single point]. Regarding `O=C(CSc1nnc(-c2ccco2)o1)N1c2ccccc2CCc2ccccc21`, the AC50 under setting [2] was 12.6 µM [rising, partial curve]. In the case of `Nc1nnnn1CC(=O)N/N=C/c1ccc(-c2cccc(Cl)c2)o1`, the AC50 was 0.158 µM [rising, full curve] under setting [1] and 0.0794 µM [rising, full curve, poor fit] under setting [2]. Regarding `COc1cc(/C=N/NC(=O)c2cccnc2)ccc1OS(=O)(=O)c1ccc(C)cc1`, the AC50 under setting [2] was 10 µM [rising, partial curve, poor fit]. On to `CC(=C(CCOP(=O)(O)O)SC(=O)c1ccccc1)N(C=O)Cc1cnc(C)nc1N`, for which the AC50 reads like this: under setting [1], 12.6 µM [falling, single point]; under setting [2], 12.6 µM [falling, single point]. For the compound `COc1ccc(N2CCN(S(=O)(=O)c3ccc(F)c(C(=O)Nc4ccccc4Cl)c3)CC2)cc1`, the AC50 was 11.2 µM [falling, partial curve] under setting [1] and 35.5 µM [falling, partial curve, poor fit] under setting [2]. In the case of `Cc1cc(C(=O)CSc2nc3ccccc3o2)c(C)n1C1CC1`, the AC50 under setting [2] is 12.6 µM [rising, partial curve, poor fit].

With `CCOC(=O)c1sc(=S)n(-c2ccccc2Cl)c1SC`, the AC50 under setting [2] is 22.4 µM [rising, single point].

Take `CC(=O)N1CCN(C(=O)c2ccc(Oc3ccccc3)cc2)CC1`: the AC50 under setting [1] was 6.31 µM [rising, partial curve]. As for `O=C(NCc1cccnc1)c1ccc(CS(=O)(=O)Cc2ccc(Cl)cc2)o1`, the AC50 under setting [2] is 35.5 µM [rising, single point]. On the same count and under the same terms, under `CC(C)COc1cccc(C(=O)Nc2ccc(S(=O)(=O)N3CCOCC3)cc2)c1` stands 14.1 µM [rising, single point]; under `CCCOc1ccc2nc(NC(=O)OC)sc2c1`, 2.51 µM [rising, full curve]; under `COc1cccc(Nc2ncc3ncc(=O)n(Cc4ccc(F)cc4)c3n2)c1`, 22.4 µM [falling, partial curve, poor fit]. Turning to `CCOc1ccc(C(=O)C2CCN(CC(=O)Nc3ccccc3N3CCOCC3)CC2)cc1`, the AC50 by setting is: under setting [1], 10 µM [rising, partial curve]; under setting [2], 12.6 µM [rising, partial curve]. Regarding `O=C(Nc1nc(-c2ccccn2)cs1)c1ccco1`, under setting [2], the AC50 was 28.2 µM [falling, single point].

With `CC(C)(C)c1ccc(S(=O)(=O)/C=C/C#N)cc1`, the AC50 is 3.55 µM [falling, full curve] under setting [1] and 3.16 µM [falling, full curve] under setting [2].
